Library screening results

Amino acid sequences for entries named in this document (tags omitted).
UniProt E9BF75, entry or part of it: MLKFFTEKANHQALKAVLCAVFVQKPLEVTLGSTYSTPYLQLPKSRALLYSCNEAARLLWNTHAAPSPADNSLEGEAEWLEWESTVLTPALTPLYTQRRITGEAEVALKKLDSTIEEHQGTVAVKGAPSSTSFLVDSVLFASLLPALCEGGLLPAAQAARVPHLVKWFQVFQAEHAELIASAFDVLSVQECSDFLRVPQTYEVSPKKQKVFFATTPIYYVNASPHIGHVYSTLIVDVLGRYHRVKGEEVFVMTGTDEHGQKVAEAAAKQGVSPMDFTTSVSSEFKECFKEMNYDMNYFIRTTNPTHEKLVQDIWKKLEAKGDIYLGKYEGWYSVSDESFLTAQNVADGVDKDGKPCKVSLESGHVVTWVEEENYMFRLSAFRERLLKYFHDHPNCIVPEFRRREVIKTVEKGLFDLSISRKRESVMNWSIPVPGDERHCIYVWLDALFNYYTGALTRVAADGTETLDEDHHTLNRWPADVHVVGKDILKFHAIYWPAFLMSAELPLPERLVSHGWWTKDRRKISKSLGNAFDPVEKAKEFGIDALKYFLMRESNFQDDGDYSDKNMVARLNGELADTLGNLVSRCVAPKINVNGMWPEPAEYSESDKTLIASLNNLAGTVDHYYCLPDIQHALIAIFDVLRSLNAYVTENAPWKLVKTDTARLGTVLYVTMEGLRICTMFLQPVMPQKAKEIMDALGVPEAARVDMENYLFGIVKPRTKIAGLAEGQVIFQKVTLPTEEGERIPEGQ

From ChEMBL document CHEMBL3988442, “University of Dundee, Small-Polar-MMV Screening Library” (2021).

Results are percentages, as filed.
How 0% and 100% were set is not recorded. Most values in the screen are low, and negative values occur.
The compounds are a random part of those screened.
A dash means the value is not listed here; it may have been measured.

Mtb heat-shock: 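Assay on Mycobacterium tuberculosis, filed only as a heat shock assay from Cornell; the read-out is not stated. The concentration is filed as 10 mM, unlikely as a test dose, so the dose is not known. The record gives no direction; compounds that gave an IC50 in retests scored well above the rest, so higher reads as stronger inhibition. Of about 69,000 compounds tested this way, about 930 (1.4%) reached 50% or more in at least one test.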
Mtb growth Cornell: 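Whole-cell assay for inhibitors of Mycobacterium tuberculosis growth, labelled Cornell in the record; the read-out is not stated. The concentration is filed as 10 mM, unlikely as a test dose, so the dose is not known. Higher means stronger inhibition (inferred from two other growth screens of the library). Of about 53,000 compounds tested this way, about 900 (1.7%) reached 50% or more in at least one test.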
LdMetRS: 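Primary screen of methionyl-tRNA synthetase; the read-out is not stated. Target: Methionyl-tRNA synthetase (putative), Leishmania donovani (UniProt E9BF75). The test concentration is not given. The values are filed as inhibition. Size under these conditions: about 68,000 compounds, about 24 of them at 50% or above in at least one test.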

Compound	Mtb heat-shock	Mtb growth Cornell	LdMetRS
COCCCC(=O)N1CCC(Nc2cccnn2)CC1	1.397%	-0.4421%	13.68%
CC(=O)N1CCC2(CCCN(S(=O)(=O)c3ccccc3)C2)C1 (configuration not stated)	-19.78%	-12.03%	3.361%
O=C(NC1CCN(c2cccc(OC(F)(F)F)c2)C1=O)C1CC1 (configuration not stated)	23.7%	-1.368%	7.427%
[H][C@@]12CCN(C(=O)COC)[C@]1([H])C(=O)N(CCC)C(=O)N2Cc1cccs1	-34.97%	-30.96%	-
CCOC(C)c1noc(CN(C)C(=O)c2ccncc2)n1 (configuration not stated)	-28.75%	15%	3.351%
O=C(NC[C@H]1OC[C@@H]2CCN(C3CCOCC3)C[C@@H]21)c1ccncc1	-	-	8.711%
O=C(O)C(F)(F)F.[H][C@@]12CCN(c3ncccn3)[C@@]1([H])CCN2C(=O)N1CCCC1	-10.67%	-2.727%	-
O=C(Cc1ccccc1)N1CCC2(CC(=O)N(c3ccsc3)C2)C1 (configuration not stated)	1.939%	26.75%	17.14%
COc1ncccc1C(=O)N(C)Cc1nc(-c2ccccn2)no1	6.568%	-8.394%	4.795%
Cl.O=C(O)C1(Cc2cccc(-c3cccs3)c2)CCCNC1 (configuration not stated)	-7.237%	-28.61%	-
NC(=O)Nc1cccc(CNC(=O)CCCc2ccccc2)c1	-2.935%	-2.058%	10.29%
Cc1ccoc1CNCc1nnc2n1CCCC2C(F)(F)F (configuration not stated)	6.568%	0.9513%	7.038%
CN(CCc1ccccn1)C(=O)C1Cc2ccccc2CN1C (configuration not stated)	4.684%	-	7.904%
O[C@@H]1C[C@@H](c2nc(-c3ccc(F)cc3)no2)N(C2CCOCC2)C1	-3.473%	11.2%	9.153%
Cl.NCc1ccc(OC(F)F)cc1OC(F)F	10.27%	-15.63%	-
CCN(C(=O)C1=NN(c2ccccc2)C(=O)CN1)c1ccccc1	-27.32%	17.78%	10.48%
COc1ccc(C(=O)N2CCCCC2c2nc(C)cs2)nn1 (configuration not stated)	-6.392%	-8.219%	3.644%
O=C(O)C(F)(F)F.[H][C@@]12CCN(c3cccnc3)C[C@]1([H])CN(C(=O)c1ccco1)C2	-3.137%	-4.596%	-
Cn1cc(Br)cc1C(=O)NCC(C)(O)c1ccsc1 (configuration not stated)	-9.075%	0.4198%	17.79%
Cc1ccc(NC2CCN(C(=O)Cc3c(C)nn(C)c3C)CC2)nn1	-19.03%	-	19.13%
CN(CCN1CCOCC1)C(=O)CCCc1ccccc1	-15.59%	9.63%	14.79%
O=C(c1cccc(Cl)c1)N1CCCC(Nc2ccc(F)cc2)C1 (configuration not stated)	-18.82%	24.58%	14.05%
[H][C@@]12COC[C@]1(CNS(C)(=O)=O)CN(C(=O)CC1CCCC1)C2	37.91%	-5.779%	-
COc1ccc(CNC(C)c2cn[nH]c2C)cc1 (configuration not stated)	-9.915%	5.714%	-1.389%
Cc1ccc(CN(CCCn2ccnc2)Cc2c[nH]cn2)s1	-	-	12.67%
Cc1nc(CN2CCC(CNC(=O)NCCC3CCC3)CC2)oc1C	13.59%	-	1.423%
CC(=O)c1cccc(OCCCC(=O)N(C)Cc2cccc(O)c2)c1	-33.23%	-	13.41%
COc1ccc(Cl)cc1CC(=O)NS(=O)(=O)c1ccc(C(N)=O)cc1	3.752%	-	15.34%
Cc1cc(C2CCN(S(=O)(=O)N(C)C)CC2)ccn1	-30.19%	-25.7%	0.5319%
Nc1ncc(-c2ccc(NC(=O)[C@@H]3CCCCN3)cc2)cn1	-9.095%	-8.73%	8.01%
Cc1cncc(C(=O)N2CCO[C@H]3[C@H](OCCN(C)C)CC[C@@H]32)c1	-	-	6.599%
OCCN1CCN(Cc2coc(-c3cccc(Cl)c3)n2)CC1	-11.7%	-	14.2%
Cc1nnn2c1COCC(CNC(=O)c1ccnnc1)C2 (configuration not stated)	-29.11%	26.66%	10.22%
O=C(NCC1Cn2nnc(-c3ccsc3)c2CO1)N1CCCC1 (configuration not stated)	-4.735%	5.802%	19.05%
CCn1c(CC2CCN(C(=O)C3CC(C(C)C)=NO3)CC2)nn(C)c1=O (configuration not stated)	4.196%	8.464%	14.34%
Cc1nc(-c2ccc(CO)cc2)cc(C2CCNCC2)n1	-	-	13.83%
CC1CCN(C(=O)C(C)N2CCN(c3nccs3)CC2)CC1 (configuration not stated)	19.1%	-98.41%	14.03%
CNC(=O)CN1CC[C@H]2CN(C(=O)c3cccc(C)c3)C[C@H]2C1	-	-	12.69%
COc1ccccc1CNCCc1cccc(C(N)=O)c1	-50.39%	-1.368%	21.43%
Cc1ccc2nc(C)c(C)c(C(=O)N3CCC4(CCO4)CC3)c2c1	-0.08504%	-18.67%	11.73%
CCOc1c(Cl)cc(/C=C/c2ncc(C(=O)O)s2)cc1OC	-10.94%	33.38%	13.11%
Cn1cc(CN2CCc3c(COCC4CC4)cncc3C2)cn1	-	-	0.5376%
Cn1cc(CN2CCn3cnc(COCC4CC4)c3C2)cn1.O=C(O)C(F)(F)F	-31.82%	-24.98%	-
[H][C@]12COC[C@H](N3CCN(C)CC3)[C@@]1([H])CN(Cc1cccnc1)C2	-1.985%	8.999%	-
COC(=O)CNC(=O)N1CCC2(CC1)CC(c1ccccc1)CN(C)C2 (configuration not stated)	-5.514%	-	-0.5495%
Cc1cc(NC(C)Cc2cccnc2)n2nccc2n1 (configuration not stated)	-20.47%	-	6.091%
Cc1cc(CNC(=O)CCN2CCN(c3ccccn3)CC2)c(C)o1	-10.6%	39.82%	10.29%
Cc1cccc(C(=O)N2CC(C(=O)NCC3CC3)C3(CCOCC3)C2)n1 (configuration not stated)	-	-	16.31%
COCC1CN(c2ccc(C)nn2)Cc2cnn(CC3CCOCC3)c21.O=C(O)C(F)(F)F.O=C(O)C(F)(F)F (configuration not stated)	9.044%	1.596%	-
Cn1cc(CNC2CCOCC2)c(-c2cc3ccccc3o2)n1	-3.925%	14.12%	21.35%
CCCNC(=O)NC(=O)CNC(C)(C)c1ccc2c(c1)OCCO2	99.39%	101.9%	26.11%
Fc1ccc(CNCC2OCCc3cn(CC4CC4)nc32)cc1.O=C(O)C(F)(F)F.O=C(O)C(F)(F)F (configuration not stated)	12.69%	31.36%	-
CC1(c2ncc(CN3CCN(c4ccccn4)CC3)cn2)CCCCO1 (configuration not stated)	-14.37%	6.161%	15.12%
Cc1ccc(-c2cc(CN(CC(N)=O)CC(C)C)on2)cc1	-142.8%	-	17.82%
COCC(=O)N1CCc2nc(-c3cnccn3)nc(O)c2C1	-6.426%	-28.51%	13.02%
COCC1CC2(CCN(C(N)=O)CC2)CN1Cc1csc(C)n1 (configuration not stated)	-	-	11.5%
Cc1ccccc1N1CCN(c2nc(N(C)C)nc3c2CCNC3)CC1	99.74%	-18.26%	22.74%
CNc1nc(CNC(=O)Nc2ccc(OC(C)C)cc2C)cs1	9.39%	-	8.824%
Cc1nnc(C2Cc3ccccc3CN2Cc2nc(C(C)C)no2)o1 (configuration not stated)	2.894%	-	25.97%
O=C(O)C(F)(F)F.O=C(O)C(F)(F)F.O=c1cc(Cn2cncn2)nc2n1CCCN(CCN1CCCC1)C2	-48.38%	-	-
Cn1cnc(S(=O)(=O)NCCCN2CCCC2=O)c1Cl	-6.211%	11.77%	16.11%
Cc1cccc(C(=O)N2C[C@H](NS(C)(=O)=O)[C@@H]3OCCC[C@@H]32)n1	-	-	12%
CCc1nc2n(n1)CC(NCc1cn(C)nc1-c1cccnc1)CC2 (configuration not stated)	15.94%	-	-
NC(=O)CC1CCN(C(=O)c2csc(-c3ccccc3F)n2)CC1	26.31%	7.425%	8.193%
CCOC(=O)C(CO)NC(=O)CCc1cccc(OC2CCCC2)c1 (configuration not stated)	-10.42%	-	4.735%
CC(C)(C)OC(=O)N1CCCCC1C(=O)NCc1cc[nH]n1 (configuration not stated)	-9.135%	-48.42%	12.36%
Cc1nc(C2CCCN(C(=O)COCc3ccccc3Cl)C2)no1 (configuration not stated)	5.735%	-	6.294%
O=C(NCCn1ccnc1)c1ccn(-c2ccccc2F)n1	-33.93%	-20.33%	3.429%
[H][C@@]12C[C@@H](Oc3ccccc3)C[C@]1([H])CN(C(=O)c1cnn(C)c1)C2	-3.173%	2.516%	-
Cn1ncc2c(=O)[nH]c(CN(Cc3ccco3)C3CC3)nc21	-0.05321%	-63.89%	20.8%
CC(C)CC(=O)N1CCC2(CC1)[C@@H]1CN(C(=O)N(C)C)C[C@@H]1C(=O)N2C	-	-	8.889%
COc1ccc2c(c1)CCCN2Cc1nc2c(cnn2C)c(=O)[nH]1	8.578%	0.6848%	7.981%
CN(CC(C)(CO)CO)C(=O)Nc1cc(F)cc(F)c1	0.7708%	24.27%	14.74%
CC(C)C(=O)N1CC2(CCN(CC(C)(C)C)CC2)C1.O=C(O)C(F)(F)F	-16.81%	-	-
Cc1cnc(C(=O)N[C@H]2CN(CCS(C)(=O)=O)C[C@@H]2C2CC2)cn1	-6.939%	-	1.242%

4 of the entries, repeated:

* CN(CC(C)(CO)CO)C(=O)Nc1cc(F)cc(F)c1 | Mtb heat-shock: 0.7708%; Mtb growth Cornell: 24.27%; LdMetRS: 14.74%
* Cc1ccc(NC2CCN(C(=O)Cc3c(C)nn(C)c3C)CC2)nn1 | Mtb heat-shock: -19.03%; LdMetRS: 19.13%
* OCCN1CCN(Cc2coc(-c3cccc(Cl)c3)n2)CC1 | Mtb heat-shock: -11.7%; LdMetRS: 14.2%
* [H][C@]12COC[C@H](N3CCN(C)CC3)[C@@]1([H])CN(Cc1cccnc1)C2 | Mtb heat-shock: -1.985%; Mtb growth Cornell: 8.999%